One molecule from US20110229491A1 (published 2011) can be followed below.

The target of this assay is YFPC, the fragment containing amino acid residues 155-238 of YFP (empty vector). As to the kind of experiment: BiFC in tobacco leaf epidermal cells (ETG1-YFPN and YFPC).

No constants are given. Whether binding was seen depends on the method and setting. Sequences can lack the tags named with a protein.

B1: ETG1:YFPN fusion protein (other, UniProt Q501D5 1-589, looked up)
chain: MGGPAYDCLTNPLGAVRFSFVNALSSGYDPASSVGKDWGVVDLFRHYFSDESAISQVPILDSSSIKWVQPKTLVRFRGMIQDMLGNEFYAGAYKDDSTWRTNKYSDVSQFPEGSSTEIQVWERRLLYCVPVPGKNQWTECSSQELKNRFLDLTGQNREKRVRVDEEMTDSMDSSTLEAGRNGSPFKKMKVGEATSSASESQVPQTSGIPPATSADSLPCLVKIYDSPESDLKLNDVVEFLGVLTFDPIVMMDTDTLDENSDALSEAESVQMPSGKVPRLHCLIHRKLETQHFLHGSSLLPEPKSPQIFKEIRESLMKYLTGLLGNDHIAAQFLLLHLLSKVHGRVDNVAVGKLSLNLIHLNKESMSIFGTQLSGALKSLLPFTQSIPLTIEYLNTASFGPKKDYGINRLMPGVLQIADGTHLILDETELQPGTLNSVGVENANLLKNLLECQKVEYDFQYYKMEMATDVQMLIFSEGKSNIMPADLVLPLQPSQVNSLEVITPETAETWRCYLATCKSLSHSIGQELQQVVENDLVAARQTDRSLGSQDLSRLLTMARMMSVSYGETTLSLEHWQMVLELERLRKERLK
notes: range 1-589;range 1-154; BiFC construct expressed in tobacco leaf epidermal cells; not shown: YFPN: fragment with amino acid residues 1-154 of YFP (plasmid pUC-SPYNE)
As for B1, the binding entry is “no binding”.
